Record: PubChem BioAssay AID504786 (Drosophila RNAi Screening Center, 2011)
The screen tested about 21,000 reagents; shown is an unselected part of those with a known target gene and a result. 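Primary screen; positive scores mean lost reporter signal, so the sign may be inverted from the usual convention.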 Names joined by + are all predicted targets of the reagent. No sequences are given here.

Purpose: 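Knock-downs reducing HIF reporter induction by the iron chelator DFO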 (primary screen)
System: Drosophila S2 cells with a stable HIF luciferase reporter
Knock-down reagent: long dsRNA against Drosophila genes, about 0.2 µg dsRNA per well of a 384-well plate
Duration: three days of knock-down, then 20 h of DFO before reading
Treatment: desferrioxamine (DFO) at 100 µM, an iron chelator that mimics hypoxia, for 20 h
Measured: 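HIF reporter luminescence in cells given 100 µM DFO for 20 h, using the mouse ldh-a hypoxia-response element, scored as per-plate z-scores; higher means greater loss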
Scale: z-score: higher = stronger loss of HIF reporter signal

no.	predicted target	PubChem SID	z-score, replicate 1	z-score, replicate 2	z-score, replicate 3	z-score, replicate 4
1	CG11370	SID104191445	0	-0.2		
2	CG31926	SID104180087	-0.4	-0.2		
3	Grip	SID104197732	0.7	1.8		
4	Grip	SID104198187	0	-0.5		
5	sand	SID104187037	-0.3	-0.3		
6	side-VI	SID104192620	0.2	0.5		
7	side-VI	SID104192622	0.3	0.6		
8	side-VI	SID104194712	-0.2	-0.5		
9	side-VI	SID104195416	-0.1	-0.8		
10	CG14684	SID104194699	-0.4	-0.7		
11	Max	SID104191010	-0.2	0.1		
12	CG42376 + cin	SID104198544	-0.2	-0.8		
13	CG10339	SID104183857	0	-0.2		
14	GCS2beta	SID104182752	0.3	0		
15	dysf	SID104194321	-0.3	-0.8		
16	dysf	SID104194687	-0.4	-0.7		
17	dysf	SID104194688	-0.2	-0.7		
18	dysf	SID104194689	-0.9	-0.8		
19	CG10343	SID104181833	-0.2	0		
20	Sclp	SID104199643	-0.3	-0.9		
21	scyl	SID104191184	-0.3	-0.6		
22	CG15269	SID104181734	-0.1	-0.5		
23	Sox21a	SID104190611	-0.2	0		
24	eve	SID104187406	-0.3	0.1		
25	corto	SID104192167	-0.3	0.1		
26	CG14631	SID104197584	-0.4	-0.7		
27	CG14631	SID104197733	-0.4	-0.7		
28	AttD	SID104196064	-0.3	-0.4		
29	Tm1	SID104192874	-0.3	-0.2		
30	Tm1	SID104192875	-0.5	-0.3	-0.4	-0.2
31	Tm1	SID104196678	-0.2	-0.2		
32	CG13847	SID104194489	1.8	1.8		
33	eIF4E1	SID104191134	7.3	3.7		
34	CG3651	SID104183522	-0.1	-0.3		
35	CG14234	SID104199109	0.3	0.3		
36	CG14234	SID104199381	0.1	0.6		
37	Ugt50B3	SID104184570	0	-0.1		
38	Ugt50B3	SID104184571	0.1	-0.1		
39	CG31681	SID104179899	-0.5	-0.1		
40	tim	SID104180633	-0.3	-0.3		
41	CG7218	SID104196008	-0.3	-0.1		
42	fliI	SID104200370	0.1	-0.2		
43	CG4021	SID104184231	-0.3	-0.3		
44	Mkp3	SID104189876	-0.3	-0.4		
45	Mkp3	SID104189877	-0.2	-0.4		
46	HDAC4	SID104199572	-0.3	0.4		
47	SRPK	SID104186882	-0.2	0.1		
48	14-3-3zeta	SID104184820	-0.2	-0.1		
49	MTF-1	SID104188775	-0.2	0.3		
50	MTF-1	SID104191009	-0.3	-0.5	-0.1	0
51	CG7191	SID104182814	-0.1	0		
52	Fer1HCH	SID104196463	0.4	2.3		
53	CG33298	SID104182002	-0.3	-0.3		
54	CG33298	SID104182464	-0.2	-0.5		
55	CG15365	SID104197830	1.4	4		
56	Socs16D	SID104199879	-0.1	-0.2		
57	CG6569	SID104195859	0.3	0.2		
58	RpL15	SID104200755		9.7		
59	CG4972	SID104182590	-0.1	0.5		
60	CG9304	SID104184330	-0.4	-0.7		
61	CG10470	SID104181853	-0.4	-0.3		
62	Pak	SID104192394	-0.4	-0.7		
63	l(3)psg2	SID104190276	0.4	0.6		
64	Polr2L	SID104194422	0	0		
65	CG8500	SID104196226	-0.3	-0.6		
66	Jra	SID104187239	-0.3	-0.8		
67	ppk14	SID104183030	0	-0.7		
68	beta'COP	SID104183284	0	1.2		
69	ND-MLRQ	SID104191705	1.1	0.9		
70	Flo1	SID104187219	-0.2	-0.3		
71	CG13314	SID104189777	-0.1	0		
72	CaMKI	SID104196954	-0.3	-1.1		
73	CG8036	SID104196158	-0.4	1		
74	Xxylt	SID104183899	-0.2	-0.3		
75	Ubc7	SID104200091	-0.5	-0.4		
76	PpY-55A	SID104187305	0.1	0.8		
77	Gr10a	SID104198689	-0.4	0.5		
78	CG9686	SID104198231	0.1	0.8		
79	PsGEF (retired record)	SID104198392	-0.2	0.2		
80	PsGEF (retired record)	SID104198393	1.3	2		
81	CG10560	SID104194048	0.2	0.7		
82	CG10674	SID104189567	-0.3	0		
83	Amyrel	SID104185712	-0.2	-0.8		
84	Toll-6	SID104191096	-0.1	0		
85	grn	SID104192458	3.8	0.1		
86	grn	SID104196753	-0.2	-0.4		
87	CG13616	SID104194411	-0.1	-0.1		
88	CG11723	SID104180116	-0.3	0		
89	CG14105	SID104189899	-0.3	-0.5		
90	CG6678	SID104195884	-0.3	-0.2		
91	Eig71Ek	SID104190950	-0.3	0		
92	Arl4	SID104196948	-0.3	-0.3		
93	RPA2	SID104182976	-0.3	-0.1		
94	TwdlX	SID104198943	-0.4	-0.4		
95	IscU	SID104196364	2.6	0.7		
96	Nepl12	SID104196203	-0.4	-0.6		
97	CG4424	SID104195368	-0.2	-0.2		
98	tj	SID104181803	-0.3	-0.2		
99	CG10376	SID104181841	-0.4	-0.1		
100	Phf7	SID104200484	-0.3	-0.4		
101	CG32176	SID104189849	-0.3	0.3		
102	CG32176	SID104189850	-0.2	0		
103	Lsd-1	SID104194028	-0.1	0		
104	CG7848	SID104186842	-0.1	0		
105	CG11168	SID104194084	-0.2	-0.4		
106	park + Targ3	SID104191409	-0.3	-0.2		

13 of these entries, set out differently:
l(3)psg2 [SID104190276] → z-score, replicate 1 = 0.4; z-score, replicate 2 = 0.6
Polr2L [SID104194422] → z-score, replicate 1 = 0; z-score, replicate 2 = 0
CG8500 [SID104196226] → z-score, replicate 1 = -0.3; z-score, replicate 2 = -0.6
Jra [SID104187239] → z-score, replicate 1 = -0.3; z-score, replicate 2 = -0.8
ppk14 [SID104183030] → z-score, replicate 1 = 0; z-score, replicate 2 = -0.7
beta'COP [SID104183284] → z-score, replicate 1 = 0; z-score, replicate 2 = 1.2
ND-MLRQ [SID104191705] → z-score, replicate 1 = 1.1; z-score, replicate 2 = 0.9
Flo1 [SID104187219] → z-score, replicate 1 = -0.2; z-score, replicate 2 = -0.3
CG13314 [SID104189777] → z-score, replicate 1 = -0.1; z-score, replicate 2 = 0
CaMKI [SID104196954] → z-score, replicate 1 = -0.3; z-score, replicate 2 = -1.1
CG8036 [SID104196158] → z-score, replicate 1 = -0.4; z-score, replicate 2 = 1
Xxylt [SID104183899] → z-score, replicate 1 = -0.2; z-score, replicate 2 = -0.3
Ubc7 [SID104200091] → z-score, replicate 1 = -0.5; z-score, replicate 2 = -0.4
